Laboratory results taken from patent publication US7276370 (DONALD DANFORTH PLANT SCIENCE CENTER, dated 2007).
Results are given in words; binding and its absence hold for the method and conditions named. Some binding calls cover weakened binding; strength is not graded here.

Legend:
[1] = target: 3Δ mutant of Rf2a (rice (Oryza sativa)) (UniProt Q69IL4); test: EMSA with BoxIIml DNA probe
[2] = target: Rf2a transcription factor (rice (Oryza sativa)) (UniProt Q69IL4); test: EMSA with BoxIIml DNA probe
[3] = target: Rf2a transcription factor (rice (Oryza sativa)) (UniProt Q69IL4); test: EMSA, equimolar Rf2a and 3Δ with 32P-labeled BoxIIml DNA probe; band of intermediate mobility
[4] = target: 3Δ mutant of Rf2a (rice (Oryza sativa)) (UniProt Q69IL4); test: EMSA, E. coli protein extract with 32P-labeled BoxIIml DNA probe; homodimer inferred from the shifted band

- binding [1]: binds
- binding [2]: binds
- binding [3]: binds
- binding [4]: binds
B1: 3Δ mutant of Rf2a (protein)
chain: ESSSAAAHGARPKHQHSLSMDESMSIKAEELVGASPGTEGMSSAEAKKAVSAVKLAELALVDPKRAKRIWANRQSAARSKERKMRYIAELERKVQTLQTEATTLSAQLALLQRDTSGLTTENSELKLRLQTMEQQVHLQDALNDTLKSEVQRLKVATGQMANGGGMMMNFGGMPHQ
